Measurements: PubChem BioAssay AID540276 (National Center for Advancing Translational Sciences (NCATS), 2011)
The campaign covered roughly 300,000 compounds. About 5,400 (1.8%) were called active. The shares of active, inactive and inconclusive entries below differ from those in the screen. Calls follow the shape of the full dose curve; tested in HEK293 cells. Where the call is inconclusive, the potency comes from a doubtful curve fit.

Assay: qHTS for inhibitors of binding or entry into cells for Marburg Virus
Conditions: Marburg virus pseudotyped entry inhibition, cell reporter; series mostly up to 37.8 µM
Potency is read from the fitted curve at half-maximal effect.

Row | Compound | Potency
1 | O=S(=O)(NCCSc1ccccc1)c1cccs1 | inconclusive: 25.9 µM [activator, single point]
2 | C=CCn1c(SCC(=O)NC(=O)c2cccc([N+](=O)[O-])c2)nnc1-c1ccccc1 | inconclusive: 3.98 µM [activator, single point]
3 | CCCCN(C)CCCNC(=O)c1ccc2nc(N3CCCCC3)sc2c1 | inactive
4 | O=C(Nc1ccccc1)N1CCc2ccccc2C1 | inactive
5 | CC1CCc2sc(C(=O)OCC(=O)NCc3ccccc3)cc2C1 (centres undefined) | inactive
6 | COc1ccc(NC(=S)NNC(=O)CCn2cc([N+](=O)[O-])cn2)cc1 | inactive
7 | CCN(C(=O)CCc1nc(-c2ccc(C)cc2)no1)c1cc(C)ccc1C | inactive
8 | COc1ccc(CN2CCC(C(=O)Nc3ccc(Oc4ccccc4)nc3)CC2)cc1F | inconclusive: 12.6 µM [inhibitor, single point]
9 | COc1ccc(/C=N/NC(=O)c2ccccc2OC)cc1COc1ccccc1[N+](=O)[O-] | inconclusive: 10 µM [inhibitor, single point]
10 | O=C(CCNC(=O)c1ccc(Br)cc1)Nc1cccc(S(=O)(=O)N2CCCCCC2)c1 | inconclusive: 35.5 µM [inhibitor, partial curve, poor fit]
11 | Cc1nc(Nc2cccc(O)c2)c2c3c(sc2n1)CCC3 | inconclusive: 31.6 µM [inhibitor, single point]
12 | CCOC(=O)c1c(-c2ccc(OC)cc2)oc2ccc(OC(=O)N(C)C)cc12 | active: 18.3 µM
13 | CCCOC(=O)c1c(C)oc2c1cc(NS(=O)(=O)c1ccc(OCC)cc1)c1ccccc12 | inconclusive: 7.08 µM [inhibitor, full curve, poor fit]
14 | CN1CC(c2ccc(Cl)c(Cl)c2)[C@@]2(COc3ccccc3C2=O)[C@@]12C(=O)Nc1ccccc12 (some centres undefined) | inconclusive: 10.3 µM [inhibitor, partial curve]
15 | COc1cccc(OCC(O)CN2CCC(Cc3ccccc3)CC2)c1 (centres undefined) | inconclusive: 28.2 µM [inhibitor, single point]
16 | CCc1nnc(NC(=O)c2cc(-c3ccc(C)o3)nc3ccccc23)s1 | inconclusive: 17.8 µM [inhibitor, single point]
17 | Cc1cccc(N2CCN(C(=O)c3cn(C4CCCCC4)c(=O)c4c3c3ccccc3n4C)CC2)c1C | inconclusive: 12.6 µM [inhibitor, partial curve, poor fit]
18 | O=c1c2ccccc2nnn1CSc1nnc2ccccn12 | inconclusive: 6.51 µM [activator, single point]
19 | Cc1cccc(NC(=O)C2CCCN2C(=O)OCC(C)C)c1 (centres undefined) | inconclusive: 23.1 µM [activator, single point]
20 | Clc1ccc2c(c1)C(N1CCNCC1)Cc1ccccc1S2 (centres undefined) | inconclusive: 35.5 µM [inhibitor, single point]
21 | COc1ccc(/C=C2\Sc3ccc(C(=O)N4CCCC4)cc3N(C)C2=O)cc1OC | inconclusive: 7.08 µM [inhibitor, partial curve, poor fit]
22 | Cc1cc(C(=O)N/N=C/c2ccc([N+](=O)[O-])cc2)c(C)o1 | inactive
23 | O=C(Cn1ccc(C(F)(F)F)n1)N/N=C/c1ccc(N2CCOCC2)cc1 | inconclusive: 35.5 µM [activator, single point]

Row | Compound | Potency
24 | CCOc1cc(CNCc2cccs2)cc(Br)c1OCC | inconclusive: 12.6 µM [inhibitor, single point]
25 | O=C(CNC(=O)c1ccco1)NCC(=O)OCc1cccc(Cl)c1 | inactive
26 | CN(C)c1ccc(C=NNc2nc3c([nH]2)c(=O)n(C)c(=O)n3C)cc1 | inconclusive: 15.8 µM [inhibitor, single point]
27 | Cc1ccc(-c2nnc(SCC(=O)O)n2N)cc1 | inconclusive: 0.651 µM [inhibitor, partial curve, poor fit]
28 | CN1CCN(NS(=O)(=O)c2ccc(Cl)cc2)CC1 | inconclusive: 0.562 µM [inhibitor, full curve, poor fit]
29 | CC(C)Sc1nc2c(c(=O)n(C)c(=O)n2C)n1Cc1ccc(Cl)cc1 | inactive
30 | COc1ccc(N2CCN(C(=O)COC(=O)CNC(=O)c3ccc(Cl)cc3Cl)CC2)cc1 | inactive
31 | Cc1cc(OCCOCCN(C)CCO)cc(C)c1Cl | inactive
32 | COc1cccc(C2CCCCN2Cc2nc(-c3ccc(C)o3)oc2C)c1 (centres undefined) | inconclusive: 3.98 µM [inhibitor, single point]
33 | COc1ccc(CNC(=O)c2ccc(CNc3c(NC4CCCCC4)c(=O)c3=O)cc2)cc1 | inconclusive: 29.1 µM [inhibitor, single point]
34 | Cc1ccc(-c2n[nH]c(=S)n2/N=C/c2ccc(C)o2)cc1 | inactive
35 | CCn1c(C(=O)N2CCCC(C(=O)NCCCOC)C2)cc2sccc21 (centres undefined) | inactive
36 | Cc1cccc(NC(=O)C2(C)CC3c4ccccc4C2c2ccccc23)c1C (centres undefined) | inconclusive: 17.8 µM [inhibitor, partial curve, poor fit]
37 | COc1cc(Cl)ccc1OCc1cc(C(=O)N(C)Cc2nnc(C)o2)no1 | inconclusive: 31.6 µM [inhibitor, partial curve, poor fit]
38 | COc1ccc(NC(=O)CNC(c2ccccc2)c2ccccc2)cc1Cl | inconclusive: 12.6 µM [inhibitor, partial curve, poor fit]
39 | O=C(NCc1ccccc1Cl)C(=O)c1cn(CC(=O)N2CCOCC2)c2ccccc12 | inconclusive: 7.08 µM [inhibitor, partial curve, poor fit]
40 | O=C1N(Cc2cccnc2)C[C@@H]2C[C@@H](c3cccc(OCc4ccccc4)c3)N3CCC[C@@]123 | inconclusive: 35.5 µM [inhibitor, single point]
41 | O=C(C[n+]1cc(Br)cc(Br)c1)c1cccc([N+](=O)[O-])c1 | inactive
42 | O=C(NCc1ccc(F)cc1)C(=O)Nc1nc(C23CC4CC(CC(C4)C2)C3)cs1 | inconclusive: 35.5 µM [inhibitor, single point]
43 | Cc1ccc(N/N=C2\CS(=O)(=O)N(C)c3ccsc32)cc1 | inconclusive: 3.16 µM [activator, partial curve, poor fit]
44 | O=C(CN1C(=O)C2C3CC(C(Br)C3Br)C2C1=O)N1CCN(Cc2ccccc2)CC1 (centres undefined) | inconclusive: 2 µM [inhibitor, partial curve, poor fit]
45 | Cc1cccc(Nc2nc(N)c([N+](=O)[O-])c(NCc3ccco3)n2)c1 | inconclusive: 2.91 µM [inhibitor, partial curve, poor fit]
46 | O=C1CC(NNc2nc3ccccc3s2)C(=O)N1c1ccc(F)cc1 (centres undefined) | inactive

Row | Compound | Potency
47 | CN(CC(=O)NC1CCCc2ccccc21)S(=O)(=O)c1cccs1 (centres undefined) | inconclusive: 3.55 µM [inhibitor, single point]
48 | CC(C(=O)NCC1CCCCC1)N(C)Cc1ccc(Br)cc1 (centres undefined) | inconclusive: 35.5 µM [inhibitor, single point]
49 | Cc1ccc(-n2c(O)c(C=NCc3ccccn3)c3ccccc3c2=O)cc1 | inactive
50 | CC(=O)N1CCC(N(C(=O)Nc2ccc(C)c(F)c2)C(C)C)CC1 | inactive
52 | COC(=O)c1cc(NS(=O)(=O)c2ccc(NC(C)=O)cc2)cc(C(=O)OC)c1 | inconclusive: 1.3 µM [inhibitor, partial curve]
53 | CN(CCC#N)C(=O)c1cc2c(Cl)nc3ccccc3c2s1 | inconclusive: 0.0891 µM [inhibitor, full curve, poor fit]
54 | COc1cccc(C2NC(c3cccc(OC)c3O)C(C)C(=O)C2C)c1O (centres undefined) | inconclusive: 29.1 µM [inhibitor, single point]
55 | CCc1ccc(NC(=S)N2CCC(NC(=O)C3CCCCC3)CC2)cc1 | inactive
56 | CC(NC(=S)NC1CCCCC1)c1ccc(C(C)(C)C)cc1 (centres undefined) | inconclusive: 35.5 µM [inhibitor, single point]
57 | Cc1ccc(C(Nc2ccccn2)c2ccc3cccnc3c2O)cc1 (centres undefined) | inconclusive: 35.5 µM [inhibitor, single point]
58 | CCCCCCC(=O)OC1CC(C)(C)NC(C)(C)C1 | inconclusive: 20.6 µM [activator, single point]
59 | OCCN1CCN(c2nc(-c3ccccc3)c3cc(Cl)ccc3n2)CC1 | inconclusive: 11.2 µM [inhibitor, single point]
60 | CCOC(=O)n1c(=O)n(Cc2cccc(C)c2)c2ccccc21 | inconclusive: 3.16 µM [activator, single point]
61 | CCOc1ccccc1NC(=O)Nc1nnc(N(C)Cc2ccccc2)s1 | inactive
62 | C=C(Cl)COc1ccc2c(CCCC)cc(=O)oc2c1 | inactive
63 | Clc1ccc(-c2nc3cc(CN4CCCCC4)ccc3o2)cc1 | inconclusive: 14.1 µM [activator, single point]
64 | COc1ccc2c(c1)cc1c(=O)n(CC(=O)NC3CCCCC3)nc(C)n12 | inactive
65 | Cc1ccc(NC(=O)c2oc3ccccc3c2NC(=O)Cc2cccs2)cc1 | inconclusive: 3.55 µM [activator, partial curve, poor fit]
66 | Cc1ccnc2nc(C(=O)OCCOc3ccc(F)cc3)nn12 | inactive
67 | O=C(NCc1ccc(F)cc1)C1CCCN(S(=O)(=O)c2ccc(Br)s2)C1 (centres undefined) | inconclusive: 17.8 µM [inhibitor, partial curve, poor fit]
68 | O=C(CN(c1cccc(C(F)(F)F)c1)S(=O)(=O)c1ccc(Cl)c([N+](=O)[O-])c1)NCc1ccccc1 | active: 23.1 µM
69 | CN(C)S(=O)(=O)c1ccc(NC=O)cc1 | inconclusive: 1.12 µM [activator, partial curve, poor fit]
